Values from PubChem BioAssay AID602196 (INSERM, 2012)

- Purpose: 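Genes whose knock-down alters cisplatin killing of lung cancer cells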
- Cells: human A549 lung cancer cells
- Reagents: siRNA pair against human genes
- Time to read-out: 48 h transfection before cisplatin; time from cisplatin to read-out not stated
- Challenge: cisplatin at a dose killing half of control-siRNA cells; exact dose and duration not given
- Measured: 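Shift in cisplatin death relative to control siRNA, from -50 (all cells die) to +50 (no cells die); siRNAs harmful on their own scored 0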
- Reading the numbers: two-siRNA summed score (-2 to +2): higher = both siRNAs protect from cisplatin killing; -2 means both sensitise
- Rule for the call: 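Each siRNA scores 0 if harmful alone by LDH or WST-1, otherwise +1 if it reduces and -1 if it increases cisplatin killing; a gene is active when both siRNAs agree (sum +2 or -2)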
- Meaning of the calls: active = both siRNAs shift cisplatin killing the same way; inactive = no consistent shift, or siRNA harmful alone
The deposit covers about 23,000 reagents; this is a part drawn at random. 455 of all reagents (2%) count as active. 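Active includes both protection and sensitisation; some change values fall well beyond the stated -50 to +50 range.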 Not all columns of the deposit are shown. The record does not give: the amount of reagent.

How did the screen score ZBBX (zinc finger B-box domain containing)?
two-siRNA summed score (-2 to +2): 0; activity call: inactive

What is on record for KLK1 (kallikrein 1)?
two-siRNA summed score (-2 to +2): 0; activity call: inactive

What is on record for PRDM4 (PR/SET domain 4)?
two-siRNA summed score (-2 to +2): 0; activity call: inactive

What did the screen give for ARMCX1 (armadillo repeat containing X-linked 1)?
two-siRNA summed score (-2 to +2): 0; activity call: inactive

How did the screen score FEV (FEV transcription factor, ETS family member)?
two-siRNA summed score (-2 to +2): -1; activity call: inactive

How did the screen score MICU1 (mitochondrial calcium uptake 1)?
two-siRNA summed score (-2 to +2): 1; activity call: inactive

For COPS9 (COP9 signalosome subunit 9), how do the results read?
two-siRNA summed score (-2 to +2): 0; activity call: inactive

With TBC1D13 (TBC1 domain family member 13), what does the deposit list?
two-siRNA summed score (-2 to +2): 0; activity call: inactive

How did the screen score SSX5 (SSX family member 5)?
two-siRNA summed score (-2 to +2): 0; activity call: inactive

With IL18RAP (interleukin 18 receptor accessory protein), how do the results read?
two-siRNA summed score (-2 to +2): -1; activity call: inactive

For LOC391462, how do the results read?
two-siRNA summed score (-2 to +2): 1; activity call: inactive

What is on record for TMEM107 (transmembrane protein 107)?
two-siRNA summed score (-2 to +2): 0; activity call: inactive

What did the screen give for PM20D1 (peptidase M20 domain containing 1)?
two-siRNA summed score (-2 to +2): 0; activity call: inactive

With NTNG2 (netrin G2), what was measured?
two-siRNA summed score (-2 to +2): 0; activity call: inactive

An excerpt of the results above, for reference:
IL18RAP (interleukin 18 receptor accessory protein) → two-siRNA summed score (-2 to +2): -1; activity call: inactive
LOC391462 → two-siRNA summed score (-2 to +2): 1; activity call: inactive

Additional results:
What is on record for LOC387710?
two-siRNA summed score (-2 to +2): 1; activity call: inactive

With ETS1 (ETS proto-oncogene 1, transcription factor), what was measured?
two-siRNA summed score (-2 to +2): 0; activity call: inactive

Which result is listed for SELENOP (selenoprotein P)?
two-siRNA summed score (-2 to +2): 1; activity call: inactive

What is on record for PCNA (proliferating cell nuclear antigen)?
two-siRNA summed score (-2 to +2): 0; activity call: inactive

For LEPR (leptin receptor), how do the results read?
two-siRNA summed score (-2 to +2): 0; activity call: inactive

For STAT1 (signal transducer and activator of transcription 1), what was measured?
two-siRNA summed score (-2 to +2): -1; activity call: inactive

What is on record for LOC389899?
two-siRNA summed score (-2 to +2): 1; activity call: inactive

With ILF3 (interleukin enhancer binding factor 3), how do the results read?
two-siRNA summed score (-2 to +2): 0; activity call: inactive

What did the screen give for ADAR (adenosine deaminase RNA specific)?
two-siRNA summed score (-2 to +2): -2; activity call: active

What is on record for SELE (selectin E)?
two-siRNA summed score (-2 to +2): 0; activity call: inactive

For LOC400799, what does the deposit list?
two-siRNA summed score (-2 to +2): 0; activity call: inactive

What did the screen give for MAPKAPK3 (MAPK activated protein kinase 3)?
two-siRNA summed score (-2 to +2): 0; activity call: inactive

How did the screen score KRTAP4-11 (keratin associated protein 4-11)?
two-siRNA summed score (-2 to +2): 0; activity call: inactive

What is on record for CD1D (CD1d molecule)?
two-siRNA summed score (-2 to +2): 0; activity call: inactive

For KLRC3 (killer cell lectin like receptor C3), what was measured?
two-siRNA summed score (-2 to +2): 0; activity call: inactive

Which result is listed for PITPNA (phosphatidylinositol transfer protein alpha)?
two-siRNA summed score (-2 to +2): -1; activity call: inactive

With ZNF593 (zinc finger protein 593), what was measured?
two-siRNA summed score (-2 to +2): 0; activity call: inactive

What did the screen give for IL20RA (interleukin 20 receptor subunit alpha)?
two-siRNA summed score (-2 to +2): 0; activity call: inactive

With LOC390748, what does the deposit list?
two-siRNA summed score (-2 to +2): 0; activity call: inactive

How did the screen score LOC147645?
two-siRNA summed score (-2 to +2): 0; activity call: inactive

Which result is listed for SANBR (SANT and BTB domain regulator of CSR)?
two-siRNA summed score (-2 to +2): 0; activity call: inactive

With GLRX2 (glutaredoxin 2), what was measured?
two-siRNA summed score (-2 to +2): 0; activity call: inactive

What did the screen give for GSTP1 (glutathione S-transferase pi 1)?
two-siRNA summed score (-2 to +2): 0; activity call: inactive

How did the screen score HLA-C (major histocompatibility complex, class I, C)?
two-siRNA summed score (-2 to +2): 1; activity call: inactive

Which result is listed for EEF1G (eukaryotic translation elongation factor 1 gamma)?
two-siRNA summed score (-2 to +2): 1; activity call: inactive

Which result is listed for LOC442585?
two-siRNA summed score (-2 to +2): 0; activity call: inactive
